# The shares of active, inactive and inconclusive entries below differ from those in the screen. Where the call is inconclusive, the potency comes from a doubtful curve fit. Activity calls are given as the source filed them. Rule for the calls: active = hit-call score of the fitted dose curve at least 0.9, where 1 is the maximum; inconclusive = response in the unintended direction; inactive = score below 0.9.
# Protein sequences, listed by entry. Tags and fused reporters are not part of them. Lines headed by an entry give the natural chain unless they say otherwise; changes in a name come on top.
# UniProt P10275: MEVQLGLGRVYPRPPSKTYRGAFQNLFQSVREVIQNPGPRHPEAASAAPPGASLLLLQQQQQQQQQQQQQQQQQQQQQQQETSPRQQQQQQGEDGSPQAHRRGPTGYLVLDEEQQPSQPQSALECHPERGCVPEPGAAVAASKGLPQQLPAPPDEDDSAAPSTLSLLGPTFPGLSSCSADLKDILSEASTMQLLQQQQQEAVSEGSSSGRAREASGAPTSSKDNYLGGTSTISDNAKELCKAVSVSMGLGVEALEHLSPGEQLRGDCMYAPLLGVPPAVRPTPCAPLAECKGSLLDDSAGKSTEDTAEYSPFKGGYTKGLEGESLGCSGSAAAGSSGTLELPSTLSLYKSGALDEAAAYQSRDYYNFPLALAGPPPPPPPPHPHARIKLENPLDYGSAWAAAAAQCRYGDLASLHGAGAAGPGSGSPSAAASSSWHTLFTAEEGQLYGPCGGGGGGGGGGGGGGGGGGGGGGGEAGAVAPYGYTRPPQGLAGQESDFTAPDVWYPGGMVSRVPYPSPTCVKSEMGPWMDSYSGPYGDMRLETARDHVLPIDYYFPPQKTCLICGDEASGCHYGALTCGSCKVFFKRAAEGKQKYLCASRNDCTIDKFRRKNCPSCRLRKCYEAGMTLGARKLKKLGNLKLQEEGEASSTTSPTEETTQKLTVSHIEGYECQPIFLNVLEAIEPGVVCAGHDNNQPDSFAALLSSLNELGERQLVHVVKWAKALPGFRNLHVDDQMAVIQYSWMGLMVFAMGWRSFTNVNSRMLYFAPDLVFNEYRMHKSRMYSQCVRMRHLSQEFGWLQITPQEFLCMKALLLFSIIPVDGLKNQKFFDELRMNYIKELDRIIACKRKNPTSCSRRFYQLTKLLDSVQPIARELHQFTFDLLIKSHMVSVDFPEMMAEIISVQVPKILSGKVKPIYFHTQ
# What was measured:
# [1] = ACEA_AR_agonist_AUC_viability: ACEA Biosciences xCELLigence Real-Time Cell Analysis on Androgen Receptor Agonism for Viability (AID 2283775);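 for AC50: viability read 80 hours after compound addition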
# Method in brief: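 Read-out is area under the impedance curve at 80 h post-dose in 22Rv1 cells, with DMSO as baseline and signal loss taken as reduced viability. Compounds ran in duplicate from 100 uM final.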
# [2] = ACEA_AR_antagonist_AUC_viability: ACEA Biosciences xCELLigence Real-Time Cell Analysis on Androgen Receptor Antagonism for Viability (AID 2283776);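 note: 22Rv1 human prostate cancer cells growing on impedance electrode plates; area under impedance growth curve at 80 h after dosing as viability; hits lower the growth signal relative to DMSO meaning cytotoxicity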
# Method in brief: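 Real-time electrical impedance tracks 22Rv1 proliferation after continuous compound exposure (top 100 uM final, 1:4 steps, 8 concentrations). The 80 h area-under-curve serves as the cytotoxicity readout relative to DMSO.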
# [3] = ACEA_ER_AUC_viability: ACEA Biosciences xCELLigence Real-Time Cell Analysis on Estrogen Receptor Agonism for Viability (AID 2283782);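 note: hit means loss of impedance signal meaning reduced cell growth or viability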
# Method in brief: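 T-47D; phenol red-free RPMI1640 + 10% CS-FBS; 8 conc., 1:4 serial, max 100 uM final, ≤0.5% DMSO; n = 2; continuous exposure; impedance monitored to 80 h post-dose; AUC vs DMSO.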
# [4] = biological target: AR (gene 367) (UniProt P10275); test: ACEA_AR_agonist_80hr: ACEA Biosciences xCELLigence Real-Time Cell Analysis on Androgen Receptor Agonism for Proliferation (AID 2283783);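 note: hits increase impedance growth signal above DMSO baseline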
# Method in brief: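 Androgen-driven proliferation in 22Rv1 cells is tracked as electrical impedance, taken 80 h after continuous exposure to compound (eight concentrations, 1:4 steps, maximum 100 uM final). Activity is fitted in the positive direction with DMSO as baseline.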
smiles,measurement,setting,value
CC(=O)OC/C=C(C)/C=C/C=C(C)/C=C/C1=C(C)CCCC1(C)C,AC50,[1],inconclusive: 0.223 µM
same,AC50,[2],inconclusive: 0.239 µM
same,AC50,[3],active: 68.5 µM
C[C@@H](Oc1ccc(CNC(=O)c2cccnc2Oc2ccc3c(c2)OCO3)c(F)c1)C(=O)O,AC50,[1],inconclusive: 0.00061 µM
CCCCOC(=O)c1ccccc1,AC50,[1],inconclusive: 0.0078 µM
same,AC50,[2],inconclusive: 0.00983 µM
same,AC50,[3],inconclusive: 50 µM
CCCCCC(=O)CC,AC50,[1],inconclusive: 16.8 µM
same,AC50,[2],inconclusive: 16.8 µM
OC[C@@H](O)[C@@H](O)[C@H](O)[C@@H](O)CO,outcome,[1],inactive
same,outcome,[2],inactive
same,outcome,[3],inactive
Nc1nc(N)c2nc(CNc3ccc(C(=O)N[C@@H](CCC(=O)O)C(=O)O)cc3)cnc2n1,outcome,[1],inactive
same,AC50,[2],inconclusive: 10 µM
same,AC50,[3],active: 40.1 µM
Cn1c(=O)cc(Oc2ccc(F)cc2F)c2cnc(NCC(C)(C)O)nc21,AC50,[1],inconclusive: 0.577 µM
CCCN(CCC)C(=O)SCC,outcome,[1],inactive
same,AC50,[2],inconclusive: 0.0235 µM
same,AC50,[3],inconclusive: 0.0286 µM
same,AC50,[4],inconclusive: 50 µM
CCN(Cc1c(F)cccc1Cl)c1c([N+](=O)[O-])cc(C(F)(F)F)cc1[N+](=O)[O-],AC50,[1],active: 50 µM
same,AC50,[2],active: 25 µM
same,AC50,[3],inconclusive: 1.69 µM
CC(=O)OC1CC(C)OC(C)O1 (configuration not stated),AC50,[1],inconclusive: 50 µM
same,AC50,[2],inconclusive: 0.0178 µM
CCCCCCC(=O)O,AC50,[1],inconclusive: 0.0998 µM
Cc1cc2nc3c(=O)[nH]c(=O)nc-3n(C[C@H](O)[C@H](O)[C@H](O)CO)c2cc1C,AC50,[1],inconclusive: 4.62 µM

# Rewritten with bars between the fields: entries from further up.
smiles | measurement | setting | value
CC(=O)OC/C=C(C)/C=C/C=C(C)/C=C/C1=C(C)CCCC1(C)C | AC50 | [3] | active: 68.5 µM
CCCCCC(=O)CC | AC50 | [2] | inconclusive: 16.8 µM
